In this assay the target is PSMD13-FLAG fusion protein (26 S proteasome non-ATPase regulatory subunit 13) (UniProt Q9UNM6). The assay is described as follows: co-IP; PSMD13-FLAG co-expressed with WT or mutant RPE65 in 293T-LC cells; lysis in 50 mM Tris-HCl pH 7.4, 150 mM NaCl, 1 mM EDTA, 0.5% Nonidet P-40; anti-FLAG M2 affinity gel; precipitates probed for RPE65 and FLAG.

The chains behind the UniProt entries cited, without tags or fusion partners.
UniProt Q9UNM6: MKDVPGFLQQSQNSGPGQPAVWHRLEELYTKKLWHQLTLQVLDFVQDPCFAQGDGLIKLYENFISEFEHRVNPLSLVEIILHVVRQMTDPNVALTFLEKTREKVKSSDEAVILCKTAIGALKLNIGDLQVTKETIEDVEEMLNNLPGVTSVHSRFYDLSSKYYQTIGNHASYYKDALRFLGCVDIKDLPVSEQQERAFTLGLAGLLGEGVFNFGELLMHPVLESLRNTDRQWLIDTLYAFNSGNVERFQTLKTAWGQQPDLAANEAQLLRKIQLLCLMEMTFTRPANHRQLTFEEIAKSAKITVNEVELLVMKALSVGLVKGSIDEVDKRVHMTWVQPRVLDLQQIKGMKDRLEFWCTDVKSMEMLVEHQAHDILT

Results are given in words; binding and its absence hold for the method and conditions named. In cells and extracts the contact can be indirect. Some results given as binding are weak or reduced against the parent protein; the word gives no strength.

The record followed here is PMC4081934.

B1: wild-type human RPE65 (enzyme, UniProt Q16518 1-533)
chain: MSIQVEHPAGGYKKLFETVEELSSPLTAHVTGRIPLWLTGSLLRCGPGLFEVGSEPFYHLFDGQALLHKFDFKEGHVTYHRRFIRTDAYVRAMTEKRIVITEFGTCAFPDPCKNIFSRFFSYFRGVEVTDNALVNVYPVGEDYYACTETNFITKINPETLETIKQVDLCNYVSVNGATAHPHIENDGTVYNIGNCFGKNFSIAYNIVKIPPLQADKEDPISKSEIVVQFPCSDRFKPSYVHSFGLTPNYIVFVETPVKINLFKFLSSWSLWGANYMDCFESNETMGVWLHIADKKRKKYLNNKYRTSPFNLFHHINTYEDNGFLIVDLCCWKGFEFVYNYLYLANLRENWEEVKKNARKAPQPEVRRYVLPLNIDKADTGKNLVTLPNTTATAILCSDETIWLEPEVLFSGPRQAFEFPQINYQKYCGKPYTYAYGLGLNHFVPDRLCKLNVKTKETWVWQEPDSYPSEPIFVSHPDALEEDDGVVLSVVVSPGAGQKPAYLLILNAKDLSEVARAEVEINIPVTFHGLFKKS
Regarding B1, the binding result was “binds weakly”.
